For assay [1], the target named is CLEC14A with regions 97-108 of CD141 (97-108 chimera) (human). Nature of the assay: flow cytometry, HEK293T cells transfected with the chimera of CLEC14A carrying loop residues 97-108 of thrombomodulin (GFP-positive cells gated).
For assay [2], the target named is CLEC14A with regions 1-42 of CD141 (1-42 chimera). Nature of the assay: flow cytometry on transfected cells; chimera said not to fold correctly.
The target in assay [3] is CLEC14A with regions 97-108 of CD141 (97-108 chimera) (human). In words: flow cytometry on transfected HEK293T cells.

These are yes or no findings as the source states them, for the method shown. For part of these data: Binding can be weak; no strength is given.

B1: CRT-3 anti-CLEC14A monoclonal antibody (antibody, IgG1, V domains shown)
VH: EVQLQQSGTVLARPGASVKMSCKASGYTFTSYWMHWVKQRPGQGLEWIGAIYPGNSDTSYNQKFKGKAKLTAVTSTSTAYMELSSLTNEDSAVFYCTHYYGSDYAMDYWGQGTSVTV
VL: QIVLTQSPAIMSASLGERVTMTCTASSSVSSSYLHWYQQKPGSSPKLWIYSTSNLASGVPARFSGSGSGTSYSLTISSMEAEDAATYYCHQYHRSPRTFGGGTKLEIKR
As to B1, the values for the binding result in assay [1], in assay [2] and in assay [3] were “binds”, “no binding” and “binds”, respectively.
